PubChem BioAssay AID1508597 | Cure First | 2020

Test: 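Survival screen with siRNA in ovarian cancer cells derived from patients, with or without rucaparib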 (primary screen)
System: human ovarian carcinoma lines grown from tumours: OCI-P5x (papillary serous) and OCI-C5x (clear cell)
Reagents: siRNA pool against human genes, 1.25 pmol siRNA per well
Time to read-out: 72 h or 96 h, depending on the cell culture
Challenge: rucaparib 20 µM (about IC30) or vehicle, present until read-out
Rucaparib or vehicle: Vehicle
Cell line: OCI-P5x (serous)
Measurement: 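Luminescent ATP-based viability assay read 72 or 96 h after transfection, depending on culture, given as normalised percent viability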
Scale: viability, normalised: higher = more viable cells remaining
Rule for the call: 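a well counts as a hit if its normalised viability is under 80 percent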
Calls: active = viability under 80%; inactive = viability 80% or more
Shown is a random part of the about 2,100 reagents, in one setting of the screen. 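Calls flag viability under 80% in either arm, not effects specific to rucaparib; the reference for percent is not stated.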 A reagent listed more than once was tested more than once; the source does not tell the runs apart. Not given: the 100% reference.

CDK19, technical replicate 1 — viability, normalised (%): 41; call: active
CDK19, technical replicate 2 — viability, normalised (%): 44.3; call: active
CDK19, technical replicate 3 — viability, normalised (%): 51.1; call: active
RIOK2, technical replicate 1 — viability, normalised (%): 88.4; call: inactive
RIOK2, technical replicate 2 — viability, normalised (%): 65; call: active
RIOK2, technical replicate 3 — viability, normalised (%): 70.2; call: active
TAF1L, technical replicate 1 — viability, normalised (%): 78; call: active
TAF1L, technical replicate 1 — viability, normalised (%): 72.9; call: active
TAF1L, technical replicate 2 — viability, normalised (%): 80.9; call: inactive
TAF1L, technical replicate 2 — viability, normalised (%): 77.2; call: active
TAF1L, technical replicate 3 — viability, normalised (%): 81.2; call: inactive
TAF1L, technical replicate 3 — viability, normalised (%): 69.6; call: active

A stretch taken from the entries so far:
TAF1L, technical replicate 1 — viability, normalised (%): 78; call: active
TAF1L, technical replicate 1 — viability, normalised (%): 72.9; call: active
TAF1L, technical replicate 2 — viability, normalised (%): 80.9; call: inactive

More records:
AICDA, technical replicate 1 — viability, normalised (%): 50.2; call: active
AICDA, technical replicate 2 — viability, normalised (%): 77.4; call: active
AICDA, technical replicate 3 — viability, normalised (%): 59.9; call: active
BMP2, technical replicate 1 — viability, normalised (%): 50.4; call: active
BMP2, technical replicate 2 — viability, normalised (%): 61.1; call: active
BMP2, technical replicate 3 — viability, normalised (%): 64.1; call: active
WIZ, technical replicate 1 — viability, normalised (%): 57.4; call: active
WIZ, technical replicate 2 — viability, normalised (%): 79.7; call: active
WIZ, technical replicate 3 — viability, normalised (%): 55.9; call: active
